The test deals with Cytoplasmic FMR1 Interacting Protein 1 (human (in U2OS / OS cells)) (UniProt Q7L576). Description: affinity purification with mass spectrometry; U2OS cell lysis, 5 ug anti-CYFIP1 antibody with magnetic beads overnight at 4 C, washed 3 times, eluted with glycine-HCl, mass spectrum.

Amino acid sequences for entries named in this document (tags omitted).
UniProt Q7L576: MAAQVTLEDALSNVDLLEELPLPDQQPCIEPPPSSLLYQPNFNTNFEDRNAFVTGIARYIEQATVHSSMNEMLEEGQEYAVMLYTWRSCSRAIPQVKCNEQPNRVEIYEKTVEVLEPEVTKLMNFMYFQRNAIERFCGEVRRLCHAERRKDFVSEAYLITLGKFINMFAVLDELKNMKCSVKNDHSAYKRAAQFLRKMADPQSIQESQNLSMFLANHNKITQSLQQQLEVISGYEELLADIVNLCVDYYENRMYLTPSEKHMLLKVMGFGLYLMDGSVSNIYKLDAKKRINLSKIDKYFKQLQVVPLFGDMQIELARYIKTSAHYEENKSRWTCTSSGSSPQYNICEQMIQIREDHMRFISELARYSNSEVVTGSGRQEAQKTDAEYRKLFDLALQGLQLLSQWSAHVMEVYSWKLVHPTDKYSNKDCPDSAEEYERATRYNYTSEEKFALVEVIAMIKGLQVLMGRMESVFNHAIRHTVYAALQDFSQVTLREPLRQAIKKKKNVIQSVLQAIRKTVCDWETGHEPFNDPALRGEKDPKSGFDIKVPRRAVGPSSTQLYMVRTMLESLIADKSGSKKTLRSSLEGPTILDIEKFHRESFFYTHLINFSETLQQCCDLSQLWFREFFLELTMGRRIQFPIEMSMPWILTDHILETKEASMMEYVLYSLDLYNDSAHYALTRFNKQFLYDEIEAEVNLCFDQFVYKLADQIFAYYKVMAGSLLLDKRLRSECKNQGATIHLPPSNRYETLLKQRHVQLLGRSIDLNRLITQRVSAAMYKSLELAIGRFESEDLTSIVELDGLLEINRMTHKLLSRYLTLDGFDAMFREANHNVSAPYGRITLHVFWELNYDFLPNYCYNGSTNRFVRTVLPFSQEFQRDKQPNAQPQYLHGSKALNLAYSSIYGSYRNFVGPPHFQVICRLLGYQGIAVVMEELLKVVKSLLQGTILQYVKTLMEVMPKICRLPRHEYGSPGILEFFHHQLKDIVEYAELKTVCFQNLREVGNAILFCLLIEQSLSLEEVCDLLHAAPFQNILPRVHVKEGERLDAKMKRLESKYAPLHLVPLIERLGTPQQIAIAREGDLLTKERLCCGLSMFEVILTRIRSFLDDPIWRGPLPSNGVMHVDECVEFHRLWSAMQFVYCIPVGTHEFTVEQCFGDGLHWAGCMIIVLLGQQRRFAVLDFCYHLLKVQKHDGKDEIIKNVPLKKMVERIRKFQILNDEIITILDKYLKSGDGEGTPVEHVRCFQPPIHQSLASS
UniProt O43148: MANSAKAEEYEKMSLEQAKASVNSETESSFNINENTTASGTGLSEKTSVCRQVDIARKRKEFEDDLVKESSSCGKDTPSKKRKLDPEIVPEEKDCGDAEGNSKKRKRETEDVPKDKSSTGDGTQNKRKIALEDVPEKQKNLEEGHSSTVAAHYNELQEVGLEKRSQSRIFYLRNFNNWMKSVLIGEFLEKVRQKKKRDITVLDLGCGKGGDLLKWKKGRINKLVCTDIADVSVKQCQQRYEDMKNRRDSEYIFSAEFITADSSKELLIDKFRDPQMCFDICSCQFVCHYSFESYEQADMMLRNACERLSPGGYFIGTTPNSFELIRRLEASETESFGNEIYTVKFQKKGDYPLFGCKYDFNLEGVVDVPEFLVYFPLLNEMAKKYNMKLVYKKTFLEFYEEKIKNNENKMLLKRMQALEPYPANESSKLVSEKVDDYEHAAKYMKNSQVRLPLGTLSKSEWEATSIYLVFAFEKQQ

No constants are given. Whether binding was seen depends on the method and setting. In cells and extracts the contact can be indirect. A yes stands for co-enrichment or nearness to the bait. Other partners may have been found.

Turning to “RNA Guanine-7 Methyltransferase (from UniProt O43148 1-476) (enzyme)”, the binding entry was “binds”.

The values are drawn from article PMC11846196.
